# Assay results reported in patent US20240074473A1, “METHOD FOR INDUCING HYPERTROPHIC MUSCLE FIBERS FOR INDUSTRIAL MEAT PRODUCTION” (Yeda Research and Development Co. Ltd., priority 2021, published 2024).
# Assays:
# [1] = test system: chicken primary myoblasts; test: Surface area coverage by chicken myofibers; type: cell-based; settings: 48-hours post treatment, 1 uM ERKi in PM vs DM
# [2] = test system: chicken primary myoblasts; test: Cell pellet wet weight of chicken muscle product; type: cell-based; settings: 72 hours post treatment, 1 μM
smiles,measurement,setting,value
O=C(Nc1ccc2[nH]nc(-c3ccncc3)c2c1)[C@@H]1CCN(CC(=O)N2CCN(c3ccc(-c4ncccn4)cc3)CC2)C1 [SCH772984],Surface area covered by myofibers,[1],45%
same,Increase in cell pellet weight (product mass) compared to DM,[2],approximately 40%
same,Increase in cell pellet weight (product mass) compared to DM,[2]; listed as ERKi,40%
